The data set has as its system Mex67 (full length):Mtr2 + Mtr2. Kind of data set: fluorescence anisotropy. Particulars: 20 mM Tris pH 8.0, 50 mM NaCl, 10 nM DY-547 RNA; temperature not stated; recombinant protein; protein details: His6 removed by TEV. On the technique in general: Polarisation of emitted light reports the rotation of a fluorescent probe.

The values below come from PMC4330389, “Domain organization within the nuclear export factor Mex67:Mtr2 generates an extended mRNA binding surface”.

Construct, isoform or probe ends are uncertain for at least one entry. A weaker result is weaker than the reference pair of the same experiment.

Consider CCCCCCCCCCCCCCC [C15], for which the binding result was “binds more weakly”.
To UUUUUUUUUUUUUUU [U15] belongs “binds more weakly”.
